We go through one sequence from publication PMC12350847.

The chains behind the UniProt entries cited, without tags or fusion partners. Where a name states a change or a piece, a line headed by the entry shows the natural chain unless it says otherwise.
UniProt P26651: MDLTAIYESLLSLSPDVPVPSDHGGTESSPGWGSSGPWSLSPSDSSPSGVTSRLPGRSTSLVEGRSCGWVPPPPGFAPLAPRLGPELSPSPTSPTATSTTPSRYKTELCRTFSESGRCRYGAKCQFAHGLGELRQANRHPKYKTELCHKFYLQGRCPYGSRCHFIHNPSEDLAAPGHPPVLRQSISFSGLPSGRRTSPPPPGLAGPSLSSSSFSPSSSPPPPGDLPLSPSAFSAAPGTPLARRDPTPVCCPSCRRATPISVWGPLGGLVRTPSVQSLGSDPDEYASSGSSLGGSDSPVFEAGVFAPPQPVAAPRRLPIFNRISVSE

For at least one entry, the source does not settle the construct or the ends of the probe. For some assays here: No signal at the amounts used counts as a negative. For some assays here: At least one verdict was read from the data and is not stated in words by the source. For some assays here: Tags and fusion partners may be left off the protein sequences shown.

Test in all cases: EMSA
(In general: A gel shift assay detects complexes by their altered migration in electrophoresis.)

The target of one data set is T1, pZFP36L2 (Homo sapiens) (UniProt P47974).
T1 sequence (looked up): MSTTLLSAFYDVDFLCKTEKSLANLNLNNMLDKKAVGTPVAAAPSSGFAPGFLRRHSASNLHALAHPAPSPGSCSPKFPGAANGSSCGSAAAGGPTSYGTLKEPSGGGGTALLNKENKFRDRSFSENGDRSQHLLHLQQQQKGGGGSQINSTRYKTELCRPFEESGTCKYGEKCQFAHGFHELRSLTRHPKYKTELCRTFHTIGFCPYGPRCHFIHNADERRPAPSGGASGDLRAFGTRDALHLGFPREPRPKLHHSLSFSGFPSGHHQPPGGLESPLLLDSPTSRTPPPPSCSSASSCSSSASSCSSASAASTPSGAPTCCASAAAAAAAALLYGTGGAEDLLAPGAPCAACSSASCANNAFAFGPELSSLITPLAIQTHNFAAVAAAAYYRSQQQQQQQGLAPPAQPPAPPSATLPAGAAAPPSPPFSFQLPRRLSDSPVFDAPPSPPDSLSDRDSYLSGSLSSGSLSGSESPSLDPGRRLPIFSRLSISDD
The note with it: 200 nM protein, 50 nM RNA; EMSA: 50 nM RNA, 400 nM TTP proteins or 200 nM pZFP36L2; recombinant protein; residues 1-494; protein details: N-terminal MBP (TEV-cleavable), C-terminal StrepII.

A further data set concerns pZFP36L2 + 14-3-3 beta. Particulars: tenfold excess of 14-3-3 beta, no difference from pZFP36L2 alone; EMSA: 50 nM RNA, 400 nM TTP proteins or 200 nM pZFP36L2; recombinant protein.
The target of data set [1] is pTTP (phosphorylated tristetraprolin) (Homo sapiens) (UniProt P26651). Particulars: no okadaic acid, 400 nM protein, 50 nM RNA; EMSA: 50 nM RNA, 400 nM TTP proteins or 200 nM pZFP36L2; recombinant protein; residues 1-326; protein details: N-terminal MBP (TEV-cleavable), C-terminal StrepII.
The test system of another data set is pZFP36L2 + 14-3-3 eta. The note with it: tenfold excess of 14-3-3 eta, no difference from pZFP36L2 alone; EMSA: 50 nM RNA, 400 nM TTP proteins or 200 nM pZFP36L2; recombinant protein.
The target in data set [2] is pTTP (OA), hyperphosphorylated TTP (Homo sapiens) (UniProt P26651). Particulars: okadaic acid-induced hyperphosphorylation, 400 nM protein, 50 nM RNA; EMSA: 50 nM RNA, 400 nM TTP proteins or 200 nM pZFP36L2; recombinant protein; residues 1-326; protein details: N-terminal MBP (TEV-cleavable), C-terminal StrepII.

As to “UUAUUUAUUAAAAAAAAAAAAAAAAAAAA [ARE-WT-RNA (single TTP motif, A20 tail)]”, the binding result in the data set with pZFP36L2 (Homo sapiens) is reported as “binds”; with pZFP36L2 + 14-3-3 beta, “binds”; in data set [1], “binds”; in the data set with pZFP36L2 + 14-3-3 eta it was “binds”; in data set [2], “no binding”.
